Results deposited as PubChem BioAssay AID1224830 (NIAID, 2016).
Shown is an unselected part of about 18,000 deposited reagents. About 2,900 of all reagents (16%) count as active. 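Calls are made per well; low scores hint the gene aids the LPS response, high scores that it dampens it.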 Repeated entries: four replicate wells of each siRNA pool.

Assay: 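Host factors that control LPS-induced TNF expression in human macrophages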 (primary screen)
Cells: human THP-1 monocytic leukaemia cells, TNF dual-luciferase reporter clone, PMA-differentiated to macrophage-like cells
Reagent: siRNA pool against human genes, 50 nM
Timing: LPS for 4 h, given about 3 days after siRNA transfection
Conditions: bacterial LPS (TLR4 ligand), 10 ng/ml
Detection: 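TNF firefly reporter luminescence divided by renilla, normalised to the plate median, then turned into a robust z-score for each replicate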
Direction: TNF reporter robust z-score: higher = stronger TNF reporter response to LPS
Rule for the call: 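a well is active when its z-score exceeds 2.8 or falls below -1.5; control wells carry no call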

gene | PubChem SID | TNF reporter robust z-score | Call
NRL (neural retina leucine zipper) | SID315450312 | -0.24 | inactive
NRL (neural retina leucine zipper) | SID315450312 | 1.4 | inactive
NRL (neural retina leucine zipper) | SID315450312 | 1.16 | inactive
NRL (neural retina leucine zipper) | SID315450312 | 2.08 | inactive
CAD | SID315447668 | -0.25 | inactive
CAD | SID315447668 | 1.79 | inactive
CAD | SID315447668 | 1.46 | inactive
CAD | SID315447668 | -0.78 | inactive
DOK4 (docking protein 4) | SID315457794 | -0.24 | inactive
DOK4 (docking protein 4) | SID315457794 | 0.65 | inactive
DOK4 (docking protein 4) | SID315457794 | 0.71 | inactive
DOK4 (docking protein 4) | SID315457794 | -0.17 | inactive
ZC3H6 (zinc finger CCCH-type containing 6) | SID315464389 | 1.01 | inactive
ZC3H6 (zinc finger CCCH-type containing 6) | SID315464389 | -0.27 | inactive
ZC3H6 (zinc finger CCCH-type containing 6) | SID315464389 | 0.15 | inactive
ZC3H6 (zinc finger CCCH-type containing 6) | SID315464389 | 0.55 | inactive
AK4 (adenylate kinase 4) | SID315447257 | -1.57 | active
AK4 (adenylate kinase 4) | SID315447257 | -1.12 | inactive
AK4 (adenylate kinase 4) | SID315447257 | -0.48 | inactive
AK4 (adenylate kinase 4) | SID315447257 | -1.4 | inactive
AK4 (adenylate kinase 4) | SID315464457 | -0.3 | inactive
AK4 (adenylate kinase 4) | SID315464457 | -1.3 | inactive
AK4 (adenylate kinase 4) | SID315464457 | -0.6 | inactive
AK4 (adenylate kinase 4) | SID315464457 | -0.14 | inactive
RAC3 (Rac family small GTPase 3) | SID315451024 | 0.49 | inactive
RAC3 (Rac family small GTPase 3) | SID315451024 | 0.31 | inactive
RAC3 (Rac family small GTPase 3) | SID315451024 | 1.46 | inactive
RAC3 (Rac family small GTPase 3) | SID315451024 | 1.38 | inactive
BID (BH3 interacting domain death agonist) | SID315447548 | -0.31 | inactive
BID (BH3 interacting domain death agonist) | SID315447548 | 0.55 | inactive
BID (BH3 interacting domain death agonist) | SID315447548 | -1.08 | inactive
BID (BH3 interacting domain death agonist) | SID315447548 | 0.66 | inactive
POLR1C (RNA polymerase I and III subunit C) | SID315453362 | 1.01 | inactive
POLR1C (RNA polymerase I and III subunit C) | SID315453362 | 0.27 | inactive
POLR1C (RNA polymerase I and III subunit C) | SID315453362 | 3.84 | active
POLR1C (RNA polymerase I and III subunit C) | SID315453362 | 1.62 | inactive
C11orf52 (chromosome 11 open reading frame 52) | SID315460963 | -0.55 | inactive
C11orf52 (chromosome 11 open reading frame 52) | SID315460963 | 0.51 | inactive
C11orf52 (chromosome 11 open reading frame 52) | SID315460963 | 0.93 | inactive
C11orf52 (chromosome 11 open reading frame 52) | SID315460963 | 1.65 | inactive
OR4C6 (olfactory receptor family 4 subfamily C member 6) | SID315463162 | 3.43 | active
OR4C6 (olfactory receptor family 4 subfamily C member 6) | SID315463162 | -0.73 | inactive
OR4C6 (olfactory receptor family 4 subfamily C member 6) | SID315463162 | 0.78 | inactive
OR4C6 (olfactory receptor family 4 subfamily C member 6) | SID315463162 | 0.85 | inactive
FTO (FTO alpha-ketoglutarate dependent dioxygenase) | SID315459189 | -1.08 | inactive
FTO (FTO alpha-ketoglutarate dependent dioxygenase) | SID315459189 | -0.25 | inactive
FTO (FTO alpha-ketoglutarate dependent dioxygenase) | SID315459189 | -0.79 | inactive
FTO (FTO alpha-ketoglutarate dependent dioxygenase) | SID315459189 | -0.24 | inactive
RAET1G (retinoic acid early transcript 1G) | SID315464267 | -0.63 | inactive
RAET1G (retinoic acid early transcript 1G) | SID315464267 | -0.69 | inactive
RAET1G (retinoic acid early transcript 1G) | SID315464267 | -1.9 | active
RAET1G (retinoic acid early transcript 1G) | SID315464267 | -1.21 | inactive
SMARCAL1 (SNF2 related chromatin remodeling annealing helicase 1) | SID315456318 | 1.42 | inactive
SMARCAL1 (SNF2 related chromatin remodeling annealing helicase 1) | SID315456318 | 3.29 | active
SMARCAL1 (SNF2 related chromatin remodeling annealing helicase 1) | SID315456318 | 2.01 | inactive
SMARCAL1 (SNF2 related chromatin remodeling annealing helicase 1) | SID315456318 | 1.83 | inactive
RC3H1 (ring finger and CCCH-type domains 1) | SID315462402 | 1.75 | inactive
RC3H1 (ring finger and CCCH-type domains 1) | SID315462402 | 0.44 | inactive
RC3H1 (ring finger and CCCH-type domains 1) | SID315462402 | -0.2 | inactive
RC3H1 (ring finger and CCCH-type domains 1) | SID315462402 | 0.56 | inactive
PRAMEF3 (retired record) | SID315464805 | 3.94 | active
PRAMEF3 (retired record) | SID315464805 | 2.87 | active
PRAMEF3 (retired record) | SID315464805 | 0.62 | inactive
PRAMEF3 (retired record) | SID315464805 | 1.64 | inactive
OCRL (OCRL inositol polyphosphate-5-phosphatase) | SID315450346 | -1.02 | inactive
OCRL (OCRL inositol polyphosphate-5-phosphatase) | SID315450346 | -0.01 | inactive
OCRL (OCRL inositol polyphosphate-5-phosphatase) | SID315450346 | -1.45 | inactive
OCRL (OCRL inositol polyphosphate-5-phosphatase) | SID315450346 | 0.74 | inactive
OOSP2 (oocyte secreted protein 2) | SID315463228 | -0.26 | inactive
OOSP2 (oocyte secreted protein 2) | SID315463228 | 0.37 | inactive
OOSP2 (oocyte secreted protein 2) | SID315463228 | 0.72 | inactive
OOSP2 (oocyte secreted protein 2) | SID315463228 | -0.66 | inactive
IMMP2L (inner mitochondrial membrane peptidase subunit 2) | SID315460141 | 0.84 | inactive
IMMP2L (inner mitochondrial membrane peptidase subunit 2) | SID315460141 | 2.33 | inactive
IMMP2L (inner mitochondrial membrane peptidase subunit 2) | SID315460141 | 0.19 | inactive
IMMP2L (inner mitochondrial membrane peptidase subunit 2) | SID315460141 | 0.74 | inactive
PPP1R18 (protein phosphatase 1 regulatory subunit 18) | SID315462919 | -0.35 | inactive
PPP1R18 (protein phosphatase 1 regulatory subunit 18) | SID315462919 | 0.59 | inactive
PPP1R18 (protein phosphatase 1 regulatory subunit 18) | SID315462919 | 0.25 | inactive
PPP1R18 (protein phosphatase 1 regulatory subunit 18) | SID315462919 | -0.47 | inactive
TSFM (Ts translation elongation factor, mitochondrial) | SID315453820 | 0.46 | inactive
TSFM (Ts translation elongation factor, mitochondrial) | SID315453820 | -0.46 | inactive
TSFM (Ts translation elongation factor, mitochondrial) | SID315453820 | 0.71 | inactive
TSFM (Ts translation elongation factor, mitochondrial) | SID315453820 | -0.05 | inactive
ARHGEF5 (Rho guanine nucleotide exchange factor 5) | SID315452364 | 0.12 | inactive
ARHGEF5 (Rho guanine nucleotide exchange factor 5) | SID315452364 | 1.41 | inactive
ARHGEF5 (Rho guanine nucleotide exchange factor 5) | SID315452364 | 0.87 | inactive
ARHGEF5 (Rho guanine nucleotide exchange factor 5) | SID315452364 | 1.25 | inactive
PRR35 (proline rich 35) | SID315462275 | -1.05 | inactive
PRR35 (proline rich 35) | SID315462275 | -0.72 | inactive
PRR35 (proline rich 35) | SID315462275 | -1.08 | inactive
PRR35 (proline rich 35) | SID315462275 | -0.98 | inactive
ADGRG1 (adhesion G protein-coupled receptor G1) | SID315453178 | -0.07 | inactive
ADGRG1 (adhesion G protein-coupled receptor G1) | SID315453178 | -0.36 | inactive
ADGRG1 (adhesion G protein-coupled receptor G1) | SID315453178 | 0.85 | inactive
ADGRG1 (adhesion G protein-coupled receptor G1) | SID315453178 | 0.73 | inactive
TSNAXIP1 (translin associated factor X interacting protein 1) | SID315457881 | 0.37 | inactive
TSNAXIP1 (translin associated factor X interacting protein 1) | SID315457881 | 1.52 | inactive
TSNAXIP1 (translin associated factor X interacting protein 1) | SID315457881 | 1.13 | inactive
TSNAXIP1 (translin associated factor X interacting protein 1) | SID315457881 | 1.53 | inactive
TMEM178A (transmembrane protein 178A) | SID315461872 | -0.26 | inactive
TMEM178A (transmembrane protein 178A) | SID315461872 | -0.32 | inactive
TMEM178A (transmembrane protein 178A) | SID315461872 | -0.35 | inactive
TMEM178A (transmembrane protein 178A) | SID315461872 | -0.17 | inactive
CAPN11 (calpain 11) | SID315454623 | 2.64 | inactive
CAPN11 (calpain 11) | SID315454623 | -0.49 | inactive
CAPN11 (calpain 11) | SID315454623 | -0.22 | inactive
CAPN11 (calpain 11) | SID315454623 | 2.04 | inactive
KRCC1 (lysine rich coiled-coil 1) | SID315456640 | -0.77 | inactive
KRCC1 (lysine rich coiled-coil 1) | SID315456640 | 0.14 | inactive
KRCC1 (lysine rich coiled-coil 1) | SID315456640 | -0.64 | inactive
KRCC1 (lysine rich coiled-coil 1) | SID315456640 | -0.07 | inactive

Hits, of those listed so far:
gene | PubChem SID | TNF reporter robust z-score | Call
AK4 (adenylate kinase 4) | SID315447257 | -1.57 | active
POLR1C (RNA polymerase I and III subunit C) | SID315453362 | 3.84 | active
OR4C6 (olfactory receptor family 4 subfamily C member 6) | SID315463162 | 3.43 | active
RAET1G (retinoic acid early transcript 1G) | SID315464267 | -1.9 | active
SMARCAL1 (SNF2 related chromatin remodeling annealing helicase 1) | SID315456318 | 3.29 | active
PRAMEF3 (retired record) | SID315464805 | 3.94 | active
PRAMEF3 (retired record) | SID315464805 | 2.87 | active
